Counter-ions that a name gives are not always drawn. This is one part of the list. Single values of this set are uncertain.

The assay concerns Peyronie's disease tunica albuginea primary fibroblasts. The assay is described as follows: inhibition of TGF-beta1-induced alpha-SMA expression (myofibroblast transformation), relative to TGF-beta1-only and untreated controls; higher = stronger inhibition of myofibroblast transformation. The note with it: 10 µM; TGF-beta1 10 ng/mL; 72 h.
Take `COc1cc(Nc2c(C#N)cnc3cc(OCCCN4CCN(C)CC4)c(OC)cc23)c(Cl)cc1Cl` [Bosutinib (SKI-606)]: the “inhibition of TGF-beta1-induced alpha-SMA expression” value (shortened to “inhibition”) is more than 100%.

On to `CCCCc1oc2ccc(NS(C)(=O)=O)cc2c1C(=O)c1ccc(OCCCN(CCCC)CCCC)cc1` [Dronedarone HCl], for which the “inhibition” value is more than 100%.

Consider `CCC1(c2ccccc2)C(=O)NCNC1=O` [Primidone], for which the “inhibition” value was determined as 28.6%.

For `COC(=O)C1=C(C)NC(C)=C(C(=O)OC(C)(C)CN(C)CCC(c2ccccc2)c2ccccc2)C1c1cccc([N+](=O)[O-])c1` (centres undefined) [Lercanidipine hydrochloride], the “inhibition” value is -6.17%. Turning to `CN(C)CCC(c1ccc(Br)cc1)c1ccccn1` (centres undefined) [Brompheniramine hydrogen maleate], the “inhibition” value is 2.39%. On to `c1ccc(-c2ccc(C(c3ccccc3)n3ccnc3)cc2)cc1` (centres undefined) [Bifonazole], for which the “inhibition” value came out at 7.18%. As to `Oc1c(Cl)cc(Cl)c2cccnc12` [Chloroxine], the “inhibition” value amounted to 14.4%. Take `O=C1CC[C@@H](C(=O)N2CSC[C@H]2C(=O)O)N1` [Pidotimod]: the “inhibition” value was determined as 15.7%.

On to `O=c1[nH]c2ccccc2n1CCN1CCN(c2cccc(C(F)(F)F)c2)CC1` [Flibanserin], for which the “inhibition” value amounted to 16.7%. The same measure for `O=C(c1ccc(F)cc1)C1CCN(CCn2c(=O)[nH]c3ccccc3c2=O)CC1` [Ketanserin]: 12.8%.

For `Cc1[nH]cnc1CN1CCc2c(c3ccccc3n2C)C1=O` [Alosetron Hydrochloride], the “inhibition” value is 11.2%. For `CC1(C)OC[C@@H](COC(=O)CCc2ccc(OC[C@@H](O)CNCCNC(=O)N3CCOCC3)cc2)O1` [Landiolol hydrochloride], the “inhibition” value came to 8.97%.

On to `CCS(=O)(=O)N1CC(CC#N)(n2cc(-c3ncnc4[nH]ccc34)cn2)C1`, for which the “inhibition” value was -4.35%. For `Clc1ccc2c(c1)CCc1cccnc1C2=C1CCNCC1` [Desloratadine], the “inhibition” value was found to be 58.5%.

In the case of `O=C1NCC2(CCN(CCc3ccccc3)CC2)O1` [Fenspiride HCl], the “inhibition” value was 45.8%. The figure for `Cc1cnc(Nc2ccc(OCCN3CCCC3)cc2)nc1Nc1cccc(S(=O)(=O)NC(C)(C)C)c1` is more than 100%; for `CC(=O)O[C@]1(C(C)=O)CC[C@H]2[C@@H]3C=C(Cl)C4=CC(=O)CC[C@]4(C)[C@H]3CC[C@@]21C` [Chlormadinone acetate] it is 19.1%; for `CCCNC(=O)NS(=O)(=O)c1ccc(Cl)cc1` [Chlorpropamide] it is 4.62%. For `COc1ccc(Cl)c(Nc2nc3ccccc3nc2NS(=O)(=O)c2cccc(NC(=O)C(C)(C)N)c2)c1` [Pilaralisib (XL147)], the “inhibition” value was determined as 11.9%. For `Cc1cc(O)c(C(=O)N[C@@H](C(=O)N[C@@H]2C(=O)N3C(C(=O)O)=C(CSc4nnnn4C)CS[C@H]23)c2ccc(O)cc2)cn1` [Cefpiramide sodium], the “inhibition” value was determined as 26.1%. On to `CCCCCOc1ccccc1/C(=C\SC)n1ccnc1` [Neticonazole Hydrochloride], for which the “inhibition” value was 44.9%.

Turning to `CO[C@H]1/C=C/O[C@@]2(C)Oc3c(C)c(O)c4c(O)c(c5c(nc6cc(C)ccn65)c4c3C2=O)NC(=O)/C(C)=C\C=C\[C@H](C)[C@H](O)[C@@H](C)[C@@H](O)[C@@H](C)[C@H](OC(C)=O)[C@@H]1C` [Rifaximin], the “inhibition” value is -10.1%. The figure for `C[C@]12C=CC(=O)N[C@@H]1CC[C@@H]1[C@@H]2CC[C@]2(C)[C@@H](C(=O)Nc3cc(C(F)(F)F)ccc3C(F)(F)F)CC[C@@H]12` [Dutasteride] is 30.2%; for `Clc1cccc(Cl)c1NC1=NCCN1` [Clonidine HCl] it is 11.3%; for `Nc1nc2c(ncn2COC(CO)CO)c(=O)[nH]1` [Ganciclovir] it is -7.28%. For the molecule `NCCCCCC(=O)O` [(6-)ε-?Aminocaproic acid], the “inhibition” value is 4.61%.

Turning to `CN(C)C(=N)NC(=N)N` [Metformin HCl], the “inhibition” value came out at 2.22%. Regarding `CNCCc1ccccn1` [Betahistine], the “inhibition” value worked out at 18%.

As for `CNCCc1ccccn1` [Betahistine 2HCl], the “inhibition” value worked out at 9.67%.

Regarding `CNCCc1ccccn1` [Betahistine mesylate], the “inhibition” value was determined as 54.3%. As to `Cc1nc2c([nH]1)-c1ccccc1N(C(=O)c1ccc(NC(=O)c3ccccc3-c3ccccc3)cc1)CC2` [Conivaptan HCl], the “inhibition” value stood at 17.7%. For the molecule `CCCNC(C)C(=O)Nc1c(C)csc1C(=O)OC` (centres undefined) [Articaine HCl], the “inhibition” value is 5.4%.

Consider `NCCC(O)(P(=O)(O)O)P(=O)(O)O` [Pamidronate Disodium], for which the “inhibition” value came to 26.5%. Consider `CC(C[N+](C)(C)C)OC(N)=O` (centres undefined) [Bethanechol chloride], for which the “inhibition” value was -8.21%. Regarding `COc1ccc2c(c1)C(=O)N(CCc1ccc(S(=O)(=O)NC(=O)NC3CCCCC3)cc1)C(=O)C2(C)C` [Gliquidone], the “inhibition” value came out at 11.9%. Consider `NS(=O)(=O)Cc1noc2ccccc12` [Zonisamide], for which the “inhibition” value was determined as 70.5%. Consider `Cc1cn([C@H]2C[C@H](N=[N+]=[N-])[C@@H](CO)O2)c(=O)[nH]c1=O` [Zidovudine], for which the “inhibition” value is -4.02%.

On to `COc1ccc([C@@H]2Sc3ccccc3N(CCN(C)C)C(=O)[C@@H]2OC(C)=O)cc1` [Diltiazem HCl], for which the “inhibition” value was -6.13%.

As for `Cc1ccc(C)c(OCCCC(C)(C)C(=O)O)c1` [Gemfibrozil], the “inhibition” value is -4.29%. Take `O=C(O)C[C@H](O)C[C@H](O)/C=C/c1c(C2CC2)nc2ccccc2c1-c1ccc(F)cc1` [Pitavastatin Calcium]: the “inhibition” value is more than 100%. Take `O=C(O)/C=C/C(=O)O` [Fumaric acid]: the “inhibition” value amounted to 14.7%. Take `O=C(CCCN1CCC(O)(c2ccc(Cl)cc2)CC1)c1ccc(F)cc1` [Haloperidol]: the “inhibition” value worked out at 20.3%. As for `NCC(=O)CCC(=O)O` [5-Aminolevulinic acid HCl], the “inhibition” value is -10.4%. As to `Cc1ccc(Sc2ccccc2N2CCNCC2)c(C)c1` [Vortioxetine], the “inhibition” value was more than 100%. With `Cc1ccc(Sc2ccccc2N2CCNCC2)c(C)c1`, the “inhibition” value was more than 100%. On to `O=C(O)c1ccc(-n2nc(-c3ccccc3O)nc2-c2ccccc2O)cc1` [Deferasirox], for which the “inhibition” value was 39.9%. Regarding `CC(C)C[C@H](NC(=O)CNC(=O)[C@H](Cc1ccc(O)cc1)NC(=O)[C@H](CO)NC(=O)[C@H](Cc1c[nH]c2ccccc12)NC(=O)[C@H](Cc1cnc[nH]1)NC(=O)[C@@H]1CCC(=O)N1)C(=O)N[C@@H](CCCNC(=N)N)C(=O)N1CCC[C@H]1C(=O)NCC(N)=O` [Gonadorelin Acetate], the “inhibition” value was determined as 16.2%. For the molecule `COC(=O)CCc1ccc(OCC(O)CNC(C)C)cc1` (centres undefined) [Esmolol HCl], the “inhibition” value is -19.9%. The same measure for `COc1c(C)c2c(c(O)c1C/C=C(\C)CCC(=O)OCCN1CCOCC1)C(=O)OC2` [Mycophenolate Mofetil]: 12.4%.

(Values after the supplement of paper PMC9744312.)
